# In PubChem BioAssay AID2073 (Sanford-Burnham Center for Chemical Genomics, 2009):
# Chains of the proteins cited; added tags and fusions are not shown.
# UniProt Q00975, whole entry, looked up: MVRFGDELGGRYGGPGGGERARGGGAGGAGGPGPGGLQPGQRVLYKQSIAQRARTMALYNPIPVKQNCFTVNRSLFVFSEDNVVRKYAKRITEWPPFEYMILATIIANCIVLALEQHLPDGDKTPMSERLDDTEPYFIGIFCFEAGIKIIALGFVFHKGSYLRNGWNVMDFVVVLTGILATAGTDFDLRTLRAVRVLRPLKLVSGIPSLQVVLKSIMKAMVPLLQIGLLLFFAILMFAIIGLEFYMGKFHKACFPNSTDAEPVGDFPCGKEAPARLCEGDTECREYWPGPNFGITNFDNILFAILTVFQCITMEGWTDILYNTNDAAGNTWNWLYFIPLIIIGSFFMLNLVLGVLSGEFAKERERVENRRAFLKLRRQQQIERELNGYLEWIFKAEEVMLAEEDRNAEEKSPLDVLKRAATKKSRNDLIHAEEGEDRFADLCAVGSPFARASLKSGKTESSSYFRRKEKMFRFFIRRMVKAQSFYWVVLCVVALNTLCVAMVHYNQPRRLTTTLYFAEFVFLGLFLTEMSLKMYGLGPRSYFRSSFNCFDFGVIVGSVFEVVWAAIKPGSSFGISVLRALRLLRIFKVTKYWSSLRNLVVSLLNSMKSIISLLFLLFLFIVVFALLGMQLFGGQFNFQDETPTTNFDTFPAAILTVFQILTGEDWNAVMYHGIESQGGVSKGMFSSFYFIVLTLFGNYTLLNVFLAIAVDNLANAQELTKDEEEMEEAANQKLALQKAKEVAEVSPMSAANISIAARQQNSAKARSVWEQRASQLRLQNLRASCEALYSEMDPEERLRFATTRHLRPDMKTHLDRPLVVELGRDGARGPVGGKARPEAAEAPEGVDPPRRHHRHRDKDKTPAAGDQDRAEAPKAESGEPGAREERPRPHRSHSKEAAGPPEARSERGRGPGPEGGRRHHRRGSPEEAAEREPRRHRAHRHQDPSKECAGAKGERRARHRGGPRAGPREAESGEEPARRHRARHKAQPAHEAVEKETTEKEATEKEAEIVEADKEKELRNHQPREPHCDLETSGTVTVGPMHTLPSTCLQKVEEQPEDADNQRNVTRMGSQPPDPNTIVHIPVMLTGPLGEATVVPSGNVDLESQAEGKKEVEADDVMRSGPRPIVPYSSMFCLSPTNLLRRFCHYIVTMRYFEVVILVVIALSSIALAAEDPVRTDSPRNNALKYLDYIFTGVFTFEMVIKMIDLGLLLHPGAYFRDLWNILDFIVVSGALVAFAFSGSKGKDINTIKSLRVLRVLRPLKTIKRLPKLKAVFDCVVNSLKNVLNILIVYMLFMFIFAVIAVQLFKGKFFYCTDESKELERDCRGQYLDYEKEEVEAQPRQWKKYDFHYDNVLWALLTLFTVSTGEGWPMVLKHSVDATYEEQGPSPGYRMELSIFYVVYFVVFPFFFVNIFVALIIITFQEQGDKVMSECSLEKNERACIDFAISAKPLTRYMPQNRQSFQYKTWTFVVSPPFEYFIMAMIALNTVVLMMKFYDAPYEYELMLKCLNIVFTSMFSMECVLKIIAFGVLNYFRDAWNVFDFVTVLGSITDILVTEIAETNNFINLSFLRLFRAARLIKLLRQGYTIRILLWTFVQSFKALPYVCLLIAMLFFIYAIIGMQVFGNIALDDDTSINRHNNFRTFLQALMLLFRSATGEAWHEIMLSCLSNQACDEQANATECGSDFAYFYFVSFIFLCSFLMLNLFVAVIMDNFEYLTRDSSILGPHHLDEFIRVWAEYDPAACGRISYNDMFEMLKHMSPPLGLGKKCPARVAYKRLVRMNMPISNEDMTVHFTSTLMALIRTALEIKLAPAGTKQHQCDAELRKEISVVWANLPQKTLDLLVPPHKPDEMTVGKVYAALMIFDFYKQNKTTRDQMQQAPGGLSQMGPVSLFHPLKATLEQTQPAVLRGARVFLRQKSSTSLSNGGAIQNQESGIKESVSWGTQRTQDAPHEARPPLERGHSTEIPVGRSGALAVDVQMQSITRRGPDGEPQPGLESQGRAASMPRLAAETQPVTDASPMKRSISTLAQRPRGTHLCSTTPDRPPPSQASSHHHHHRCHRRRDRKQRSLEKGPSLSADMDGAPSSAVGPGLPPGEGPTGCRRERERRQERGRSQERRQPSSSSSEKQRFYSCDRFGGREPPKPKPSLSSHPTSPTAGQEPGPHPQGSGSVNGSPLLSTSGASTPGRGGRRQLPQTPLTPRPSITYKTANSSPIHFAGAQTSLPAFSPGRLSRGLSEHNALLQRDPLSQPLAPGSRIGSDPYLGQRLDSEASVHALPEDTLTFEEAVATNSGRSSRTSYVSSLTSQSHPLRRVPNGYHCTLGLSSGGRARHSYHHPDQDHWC
# The campaign covered roughly 290,000 compounds. About 570 (0.2%) were called active. Inconclusive results, whose numbers are uncertain, are shown with a selection of clear calls. Cut-off read from the data, not from the text of the source: active = inhibition mostly above about 51% (no sharp cut-off); inconclusive = no clear call, values can overlap the other calls; inactive = mostly below about 53%.
# Molecular target: Voltage-dependent N-type calcium channel subunit alpha-1B (Homo sapiens) (UniProt Q00975)
# Assay: disruptors of CaV2.2 binding to Mint1 – biochemical, HTRF (AID 2073)
# Settings: HTRF protein-protein interaction, Mint1-CaV2.2; at 20 µM; active compounds read high
row,SMILES,inhibition
1,Cc1ccc(/C=c2\sc3nc(-c4ccccc4Br)nn3c2=O)o1,inconclusive: 67.9%
2,CCn1c(=O)c2cc(C(=O)Nc3cccc(C(C)=O)c3)sc2c2ccccc21,inconclusive: 64.7%
3,CCOC(=O)N1CCN(C(=O)CCN2C(=O)COc3ccc(C)cc32)CC1,inconclusive: 62.4%
4,Cc1nc2sccn2c(=O)c1S(=O)(=O)N1CCN(c2ccccc2)CC1,inconclusive: 52.8%
5,COCCNS(=O)(=O)c1ccc2c3c(cccc13)C(=O)N2C,inconclusive: 60.8%
6,COCCn1c(SCC(=O)Nc2ccccc2)nnc1-c1ccoc1C,inconclusive: 82.2%
7,CCOC(=O)c1cnc2c(OC)cccc2c1N1CCN(c2ccccc2OC)CC1,inconclusive: 66.9%
8,COc1ccccc1Nc1nn2c(=O)c3ccc(C(=O)NCc4cccnc4)cc3nc2s1,inconclusive: 53.3%
9,Cc1c(NC(=O)CN2CCN(c3ccc([N+](=O)[O-])cc3)CC2)c(=O)n(-c2ccccc2)n1C,inactive: 1.5%
10,O=C(OCn1ncc(Cl)c(Cl)c1=O)c1ccc(F)cc1,inactive: -3%
11,O=C(COc1ccc([N+](=O)[O-])cc1)NNC(=O)Nc1cccc(F)c1,inconclusive: 65.5%
12,O=C(NC1CCN(Cc2ccccc2)CC1)c1ccccc1F,inconclusive: 51.7%
13,CCOc1ccc2[nH]c(C)c(CN3CCN(CC)CC3)c(=O)c2c1,inconclusive: 85.9%
14,CCc1ccc(/C=N/NC(=O)Cc2cccn2C)cc1,inconclusive: 52.6%
15,O=C1N=C(N2CCCC2C(=O)O)S/C1=C\c1ccco1 (stereo not drawn),active: 95.1%
16,N#C/C(C(N)=O)=c1/ccc2c(c1)N1C3=C(CCCC3)CC3CCCCC31N=2 (stereo not drawn),inactive: -26.9%
17,Cc1cnnn1-c1cccc([N+](=O)[O-])c1,inconclusive: 92.3%
18,N#Cc1nc(-c2cccc3ccccc23)oc1NCCN1CCOCC1,inconclusive: 51.5%
19,O=C(Nc1ccc2c(c1)OCO2)c1cc2ncc(Br)cn2n1,inconclusive: 58.1%
20,CCOC(=O)c1cc(NC(=O)CCC(=O)O)ccc1N1CCCCC1,inactive: 19.3%

row,SMILES,inhibition
1,CC(=O)c1ccc2noc(-c3cccc(F)c3)c2c1,inactive: -6.7%
2,COc1cc(C(=O)NS(=O)(=O)c2ccccc2C)ccc1Cc1cn(C)c2ccc(NC(=O)OC3CCCC3)cc12,active: 51.7%
3,COC(=O)C1=C(C)N(CCCC(=O)O)C(=O)NC1c1ccc(-c2ccccc2)cc1 (stereo not drawn),inactive: -4.2%
4,COc1ccc2c(C(=O)CN3CCSCC3)c[nH]c2c1,inactive: 25.2%
5,CN1C(=O)C(O)(CC(=O)c2cccs2)c2ccccc21 (stereo not drawn),inconclusive: 69.9%
6,Cc1ccc(S(=O)(=O)n2c(=O)oc3ccccc32)cc1,inactive: -5.8%
7,CCOc1ccc(N(CC(=O)NCc2ccco2)S(C)(=O)=O)cc1,inactive: 13.2%
8,Cc1cc(C)nc(N/N=C/c2ccccc2OCC(=O)O)n1,inconclusive: 77.1%
9,COc1ccc(-c2cc3ccc(O)cc3oc2=O)cc1,inconclusive: 55.6%
10,CCC(C)c1ccc(S(=O)(=O)Nc2cccnc2)cc1 (stereo not drawn),inconclusive: 70.7%
11,NC(=O)c1cccc2cc3ccccc3cc12,inconclusive: 50.9%
12,Cc1cc2oc(=O)cc(CN3CCCCC3C)c2cc1C (stereo not drawn),inactive: 2.6%
13,Cc1ccc(C)c(NC(=O)CSc2nc3ccc(N4C(=O)c5ccccc5C4=O)cc3s2)c1,inactive: -0.7%
14,CCc1ccc(NC(=O)COC(=O)c2cccs2)cc1,inconclusive: 82.5%
15,COc1ccc(-c2cc3nc(-c4ccccc4)cc(N4CCC5(CC4)OCCO5)n3n2)cc1,inconclusive: 57.1%
16,COCCCNC(=S)N1CCC(NC(=O)c2ccco2)CC1,inconclusive: 50.6%
17,COc1cccc(C2=NOC(C(=O)Nc3cccc(C(C)=O)c3)C2)c1 (stereo not drawn),inconclusive: 51.9%
18,C/C(=N\NC(=O)COc1cccc(C)c1)c1ccc2ccccc2c1O,inconclusive: 67%
19,Cc1noc(C)c1C(=O)N1CCCC1,inconclusive: 67.1%
20,N#C/C(=C\c1ccc(C(=O)O)cc1)S(=O)(=O)c1cc(Br)ccc1Br,inconclusive: 56.9%

row,SMILES,inhibition
1,Cc1c(C)n(C)c2ccc(C(=O)NCc3cccs3)cc12,inconclusive: 55.8%
2,CC(=O)Oc1ccc2c(=O)c(/C=N/c3cc(=O)[nH]c(=S)[nH]3)coc2c1,inactive: 23.2%
3,Cc1nnc(N/N=C\c2ccc(-c3ccccc3[N+](=O)[O-])o2)n1N,inactive: 45%
4,CNC(=S)/N=C(/Nc1ccccc1)c1ccccc1,active: 59.9%
5,COc1cccc(OC)c1C(=O)Nc1cccnc1,inactive: -4.9%
6,N#Cc1ccc(N=c2ssnc2Cl)cc1,inactive: 44.2%
7,CC(=O)NC(CC(=O)OCC(=O)N1CCc2ccccc21)c1ccccc1 (stereo not drawn),inconclusive: 74.1%
8,CCn1c(=O)n(CC)c2cc(S(=O)(=O)N3CCC(c4ccccc4)CC3)ccc21,inconclusive: 70.8%
9,O=C1c2ccccc2C(=O)N1C/C=C/CN1C(=O)c2ccccc2C1=O,inactive: 0%
10,COc1ccc(-c2cnnc(N/N=C/c3ccc(-c4ccc([N+](=O)[O-])cc4)o3)n2)cc1,inconclusive: 74.8%
11,Cc1ccc(S(=O)(=O)N/N=C(\c2ccccc2)C2CC2)cc1,inconclusive: 62.7%
12,Cc1cccc(-c2nnn3c2nc(NCCc2ccc(S(N)(=O)=O)cc2)c2ccccc23)c1,inconclusive: 70.3%
13,O=C(CN1CCCCCC1=O)N1CCN(S(=O)(=O)c2cccs2)CC1,inactive: 14.5%
14,NNC(=O)c1oc2nc(-c3cccs3)cc(-c3ccco3)c2c1N,active: 51.7%
15,Cc1ccc(S(=O)(=O)N(C)c2ccc(C(=O)Nc3cccc(C)n3)cc2)cc1,inconclusive: 77%
16,CN(C)S(=O)(=O)c1cc(NC(=O)c2ccc(-n3ccnc3)c([N+](=O)[O-])c2)ccc1Cl,inconclusive: 53.3%
17,O=S(=O)(Nc1cc(Sc2cccc3cccnc23)c(O)c2ccccc12)c1ccccc1,active: 69.2%
18,CCc1ccccc1NC(=S)NC1CC2CCC(C1)N2Cc1ccc(F)cc1 (stereo not drawn),inactive: -9.8%

# Shown as tab-separated lines: part of the list above
row	SMILES	inhibition
2	CC(=O)Oc1ccc2c(=O)c(/C=N/c3cc(=O)[nH]c(=S)[nH]3)coc2c1	inactive: 23.2%
4	CNC(=S)/N=C(/Nc1ccccc1)c1ccccc1	active: 59.9%
7	CC(=O)NC(CC(=O)OCC(=O)N1CCc2ccccc21)c1ccccc1 (stereo not drawn)	inconclusive: 74.1%
